Reference: PubChem BioAssay AID1224830 (NIAID, 2016)
Test: 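Regulators of TLR4 signalling towards TNF-alpha in macrophage-like cells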 (primary screen). System: human THP-1 monocytic leukaemia cells, TNF dual-luciferase reporter clone, PMA-differentiated to macrophage-like cells. Knock-down reagent: siRNA pool against human genes, 50 nM. Duration: LPS for 4 h, given about 3 days after siRNA transfection. Conditions: bacterial LPS (TLR4 ligand), 10 ng/ml. Measurement: 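Ratio of firefly to renilla light, scaled to the plate median and expressed as a robust z-score per replicate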. Reading the numbers: TNF reporter robust z-score: higher = stronger TNF reporter response to LPS. Call rule: 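a well is active when its z-score exceeds 2.8 or falls below -1.5; control wells carry no call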.
Shown is one part, drawn at random, of about 18,000 reagents tested. In the full data, about 2,900 (16%) were called active. 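Calls are made per well; low scores hint the gene aids the LPS response, high scores that it dampens it.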 Repeated entries: four replicate wells of each siRNA pool.

TNFSF10 | TNF reporter robust z-score: 0.84; call: inactive
TNFSF10 | TNF reporter robust z-score: 1.16; call: inactive
TNFSF10 | TNF reporter robust z-score: -0.12; call: inactive
TNFSF10 | TNF reporter robust z-score: 1.03; call: inactive
ZFYVE27 | TNF reporter robust z-score: -1.24; call: inactive
ZFYVE27 | TNF reporter robust z-score: -0.27; call: inactive
ZFYVE27 | TNF reporter robust z-score: -1.07; call: inactive
ZFYVE27 | TNF reporter robust z-score: -1.06; call: inactive
PCDHA8 | TNF reporter robust z-score: -0.8; call: inactive
PCDHA8 | TNF reporter robust z-score: -0.64; call: inactive
PCDHA8 | TNF reporter robust z-score: -0.44; call: inactive
PCDHA8 | TNF reporter robust z-score: -0.35; call: inactive
CCDC74A | TNF reporter robust z-score: -1.24; call: inactive
CCDC74A | TNF reporter robust z-score: -0.75; call: inactive
CCDC74A | TNF reporter robust z-score: -0.5; call: inactive
CCDC74A | TNF reporter robust z-score: -0.36; call: inactive
MTARC2 | TNF reporter robust z-score: -0.57; call: inactive
MTARC2 | TNF reporter robust z-score: -0.61; call: inactive
MTARC2 | TNF reporter robust z-score: -0.13; call: inactive
MTARC2 | TNF reporter robust z-score: -0.92; call: inactive
LYRM4 | TNF reporter robust z-score: -1.2; call: inactive
LYRM4 | TNF reporter robust z-score: -1.05; call: inactive
LYRM4 | TNF reporter robust z-score: -0.57; call: inactive
LYRM4 | TNF reporter robust z-score: 0.33; call: inactive
COX6A1 | TNF reporter robust z-score: 0.94; call: inactive
COX6A1 | TNF reporter robust z-score: 0.44; call: inactive
COX6A1 | TNF reporter robust z-score: 1.13; call: inactive
COX6A1 | TNF reporter robust z-score: 0.52; call: inactive
LRRC37A3 | TNF reporter robust z-score: -1.47; call: inactive
LRRC37A3 | TNF reporter robust z-score: -0.33; call: inactive
LRRC37A3 | TNF reporter robust z-score: -0.56; call: inactive
LRRC37A3 | TNF reporter robust z-score: -1.07; call: inactive

5 entries from above in another layout.
COX6A1
- TNF reporter robust z-score: 0.44
- call: inactive

COX6A1
- TNF reporter robust z-score: 1.13
- call: inactive

COX6A1
- TNF reporter robust z-score: 0.52
- call: inactive

LRRC37A3
- TNF reporter robust z-score: -1.47
- call: inactive

LRRC37A3
- TNF reporter robust z-score: -0.33
- call: inactive
